Source: US20180201677A1 (ERASMUS UNIVERSITY MEDICAL CENTER, published 2018)
These are yes or no findings as the source states them, for the method shown. Some results given as binding are weak or reduced against the parent protein; the word gives no strength.

Biological target: cynomolgus monkey CD47 (cynomolgus monkey)
Assay: flow cytometry, antibody dilution series on cynomolgus red blood cells

B1: anti-CD47 antibody 2.3D11 (antibody, V domains shown)
VH: QVQLQESGPGLVKPSGTLSLTCAVSGVSIRSINWWNWVRQPPGKGLEWIGEIYHSGSTNYNPSLKSRVTISVDKSKNQFSLKLNSVTAADTAVYYCARDGGIAVTDYYYYGLDVWGQGTTVTVSS
VL: EIVLTQSPATLSLSPGERATLSCRASESVSSNLAWYQQKPGQAPRLLIYGAFNRATGIPARFSGSGSGTDFTLTISSLEPEDFAVYYCQQRSDWFTFGGGTKVEIKR
binding: binds
